Source: patent EP1081232A1, “Novel target for antifungals” (K.U. LEUVEN RESEARCH & DEVELOPMENT, priority 1999, dated 2001)
For some of these results: At least one structure is not confirmed: it was looked up by name or label, or the drawing left a doubt. Some results were stated once for a whole list of compounds, not compound by compound.

Tests used:
[1] = target: T1, trehalose-6-phosphate phosphatase (Saccharomyces cerevisiae, UniProt P31688); assay: Screening assay for inhibition of TPP activity in extracts of strain PVD45 over-expressing TPS2; type: biochemical; settings: extract of strain PVD45
T1 construct: made in house; host or cells: Saccharomyces cerevisiae strain PVD45 (W303 background, tps1Δ::TRP1 tps2Δ::LEU2 + pSAL4/TPS2 URA3); crude cell extract desalted on Sephadex G25
T1 sequence (P31688 1-896): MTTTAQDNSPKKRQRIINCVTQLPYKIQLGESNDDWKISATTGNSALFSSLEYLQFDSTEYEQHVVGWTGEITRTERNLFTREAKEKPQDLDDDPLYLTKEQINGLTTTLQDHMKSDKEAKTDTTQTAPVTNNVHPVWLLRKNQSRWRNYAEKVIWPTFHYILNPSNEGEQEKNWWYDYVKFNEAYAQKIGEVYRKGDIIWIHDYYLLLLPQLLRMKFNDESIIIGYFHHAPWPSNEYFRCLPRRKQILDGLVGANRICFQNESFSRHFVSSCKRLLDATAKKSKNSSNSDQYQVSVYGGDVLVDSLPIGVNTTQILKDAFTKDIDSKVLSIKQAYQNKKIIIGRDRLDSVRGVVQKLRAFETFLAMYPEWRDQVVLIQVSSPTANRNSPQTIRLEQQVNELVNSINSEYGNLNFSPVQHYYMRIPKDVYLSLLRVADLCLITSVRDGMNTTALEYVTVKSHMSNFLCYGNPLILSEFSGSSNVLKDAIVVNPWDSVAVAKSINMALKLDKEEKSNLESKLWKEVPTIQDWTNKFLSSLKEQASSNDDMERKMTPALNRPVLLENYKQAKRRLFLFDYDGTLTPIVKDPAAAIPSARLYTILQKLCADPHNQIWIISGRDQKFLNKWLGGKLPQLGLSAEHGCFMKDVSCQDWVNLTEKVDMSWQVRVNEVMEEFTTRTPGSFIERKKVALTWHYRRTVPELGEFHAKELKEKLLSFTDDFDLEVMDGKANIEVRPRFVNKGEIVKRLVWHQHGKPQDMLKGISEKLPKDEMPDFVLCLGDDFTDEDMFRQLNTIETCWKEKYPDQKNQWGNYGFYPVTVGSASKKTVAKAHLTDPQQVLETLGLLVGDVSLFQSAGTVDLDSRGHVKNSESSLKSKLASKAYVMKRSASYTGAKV

[2] = test system: tps2Δ strains; assay: Sensitivity towards antifungals, growth curves in liquid medium in microtiter wells (bioscreen C); type: cell-based, Saccharomyces cerevisiae; settings: 10^-7 M Itraconazole, 33°C, cells pre-grown to stationary phase, OD 600 nm, after 24 hours
Procedure: Sensitivity towards the antifungals itraconazole and ketoconazole was tested in microtiter wells using a bioscreen C apparatus (Life sciences, Labsystems) and on solid culture media.
Yeast cells were pre-grown in YPglucose medium till stationary phase. The cells were diluted to a initial optical density of 0.05 OD and 300 µl of cell suspension was added to each well of a microtiter plate. Three µl of the correct stock solution of the compound, dissolved in DMSO, were added to each well. For the control reactions, only DMSO was added. The microtiter plate was placed in the bioscreen C apparatus and were incubated at 33°C or 37°C, with medium intensity shaking (30 seconds shaking per minute). The optical density at 600 nm was measured every 30 min.
The effect of the addition of 10^-7 M Itraconazole and 10^-6 Ketoconazole on the growth curve of prototrophic tps2Δ strain PVD32 and wild type strain PVD23 at 33°C is shown in Figures 3 and 4 respectively.
The effect of different concentrations of itraconazole on the growth at 33°C of the diploid wild type strain (PVD190) and the diploid heterozygous tps2Δ strain PVD191 was tested and the results are presented in Figure 5.

[3] = test system: tps2Δ (PVD23) strain; assay: Effect on growth of serial dilutions spotted on YPD plates containing the compound; type: cell-based, Saccharomyces cerevisiae; settings: 33°C, 10^-7 M Itraconazole incorporated in the medium, even after two days incubation

CCN1C(=O)C=CC1=O [NEM, N-ethylmaleimide]
inhibition of trehalose-6-phosphate phosphatase activity ([1]; final concentrations 35 mM, 3.5 mM, 0.35 mM, 35 µM, 30 min at 30°C, Figures 8 and 9): marked inhibition

CCC(C)n1ncn(-c2ccc(N3CCN(c4ccc(OCC5COC(Cn6cncn6)(c6ccc(Cl)cc6Cl)O5)cc4)CC3)cc2)c1=O (stereo not shown) [Itraconazole]
effect on growth [2]: no detectable growth | growth on YPD plates [3]: inhibited for growth

Brc1ccc(C2CN3CCSC3=N2)cc1 (single isomer, unassigned; (-)) [(-)-p-bromotetramisole]
inhibition of TPP activity ([1]; known phosphatase inhibitors, concentrations not given): None of the following compounds inhibited TPP activity
